Results are given in words; binding and its absence hold for the method and conditions named. In cells and extracts the contact can be indirect. Some entries that bind do so weakly or less than the wild type. Tags and fused reporters may be left off the sequences shown.
T1: Csi1 (S. cerevisiae orthologue of CSN6), fused to a fragment of cytosine deaminase (FCY1) (S. cerevisiae) (UniProt Q04368)
T1 sequence: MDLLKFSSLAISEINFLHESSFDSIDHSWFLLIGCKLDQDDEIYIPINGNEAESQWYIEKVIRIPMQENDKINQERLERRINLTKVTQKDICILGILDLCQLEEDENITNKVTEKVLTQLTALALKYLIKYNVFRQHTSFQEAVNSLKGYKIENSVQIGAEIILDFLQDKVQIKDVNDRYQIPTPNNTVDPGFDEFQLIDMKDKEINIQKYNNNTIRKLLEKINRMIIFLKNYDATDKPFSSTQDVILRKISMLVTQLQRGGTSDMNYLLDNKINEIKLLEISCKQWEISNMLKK

T2: Csn10/CSN2, chromosomally integrated, TAP-tagged at the C-terminal (S. cerevisiae) (UniProt Q12348)
T2 sequence: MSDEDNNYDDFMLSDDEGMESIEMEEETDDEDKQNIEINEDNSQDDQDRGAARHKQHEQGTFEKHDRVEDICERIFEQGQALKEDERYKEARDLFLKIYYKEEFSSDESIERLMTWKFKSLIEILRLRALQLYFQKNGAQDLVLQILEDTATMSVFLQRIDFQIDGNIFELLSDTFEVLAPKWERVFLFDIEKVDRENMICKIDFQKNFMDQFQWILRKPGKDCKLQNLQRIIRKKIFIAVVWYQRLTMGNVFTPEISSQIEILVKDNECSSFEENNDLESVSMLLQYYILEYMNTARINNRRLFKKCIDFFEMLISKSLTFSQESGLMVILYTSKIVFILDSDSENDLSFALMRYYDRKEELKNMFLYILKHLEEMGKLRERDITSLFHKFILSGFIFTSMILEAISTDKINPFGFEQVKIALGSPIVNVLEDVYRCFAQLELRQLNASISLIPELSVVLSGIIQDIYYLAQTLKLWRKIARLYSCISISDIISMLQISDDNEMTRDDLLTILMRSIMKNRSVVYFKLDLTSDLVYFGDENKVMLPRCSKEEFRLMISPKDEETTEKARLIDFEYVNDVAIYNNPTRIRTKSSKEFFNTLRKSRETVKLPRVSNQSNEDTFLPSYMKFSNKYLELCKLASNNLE

B1: Csn5 (S. cerevisiae CSN5/Jab1), fused to a fragment of cytosine deaminase (FCY1) (protein, UniProt Q12468 1-440)
chain: MSLSNKTVKELRQLLKERYTVEDELTESIALSSMRFKPSQEPEFHALSQSSLLKTKLKQQSSTDIPSYTHVLISKLSCEKITHYAVRGGNIEIMGILMGFTLKDNIVVMDCFNLPVVGTETRVNAQLESYEYMVQYIDEMYNHNDGGDGRDYKGAKLNVVGWFHSHPGYDCWLSNIDIQTQDLNQRFQDPYVAIVVDPLKSLEDKILRMGAFRTIESKSDDNSATSYYELETIIFDSELNRALFETKLNLHCVIEDDESEQISLNRLIDSMKQYSYLMDSKNVRTRIKLATTSERVSNENKKNIDYQNRSTRSQFCLNTQRGDSTETSSFGSMFSGDNTSDVDMEDRNLTEFDSTDTSLCINGEPSIHVNRVERSSRSTDNFHNSKKRMNSNQERCHDEGNDMLQRNVLETDYARAKNRILASKIKQYERLRFYKDTFTL
B2: Csn9 (S. cerevisiae orthologue of CSN7), fused to a fragment of cytosine deaminase (FCY1) (protein, UniProt Q03981 1-162)
chain: MVMREETIKSLEDPYKYHYKEEWLNTKDPDEQQLFEIFAFGNIKDLPENIILTSLMRSKLEKLTLVTLSEIYNELSYELIKEECQIEDDGIIESHLIQLQNIFKAEMDSVSKSMKFSRRFDCRDVYCHEKELTIIKNPRVTKEYLVQNLRSWETKLKQNILE
B3: Rpn5 (S. cerevisiae 19S lid subunit that replaces CSN4), fused to a fragment of cytosine deaminase (FCY1) (protein, UniProt Q12250 1-445)
chain: MSRDAPIKADKDYSQILKEEFPKIDSLAQNDCNSALDQLLVLEKKTRQASDLASSKEVLAKIVDLLASRNKWDDLNEQLTLLSKKHGQLKLSIQYMIQKVMEYLKSSKSLDLNTRISVIETIRVVTENKIFVEVERARVTKDLVEIKKEEGKIDEAADILCELQVETYGSMEMSEKIQFILEQMELSILKGDYSQATVLSRKILKKTFKNPKYESLKLEYYNLLVKISLHKREYLEVAQYLQEIYQTDAIKSDEAKWKPVLSHIVYFLVLSPYGNLQNDLIHKIQNDNNLKKLESQESLVKLFTTNELMRWPIVQKTYEPVLNEDDLAFGGEANKHHWEDLQKRVIEHNLRVISEYYSRITLLRLNELLDLTESQTETYISDLVNQGIIYAKVNRPAKIVNFEKPKNSSQLLNEWSHNVDELLEHIETIGHLITKEEIMHGLQAK
B4: Csn9-13Myc (protein, UniProt Q03981 1-162)
chain: B2 chain
B5: Rpn5/CSN4, endogenous (protein, UniProt Q12250 1-445)
chain: B3 chain

Experiments:
[1] = target: T1, Csi1 (S. cerevisiae orthologue of CSN6), fused to a fragment of cytosine deaminase (FCY1) (S. cerevisiae); experiment: split reporter; protein-fragment complementation assay (PCA) in S. cerevisiae: fragments of cytosine deaminase (FCY1), each attached to a different protein; survival read-out by deamination of cytosine to uracil
[2] = target: T2, Csn10/CSN2, chromosomally integrated, TAP-tagged at the C-terminal (S. cerevisiae); experiment: pull-down; calmodulin-based affinity pulldown of chromosomally integrated Csn10-TAP from native extracts of wildtype and Δcsn5 mutant cells; immunoblotting with Rpn5 and Myc antibodies

Binder | binding [1] | binding [2]
B1 | binds | –
B2 | binds | –
B3 | binds | –
B4 | – | binds
B5 | – | binds

— PMC8065851
